These results are taken from publication PMC11389919.

The target in test [1] is T1, TCP17 fused to the GAL4 activation domain (pGADT7) (Arabidopsis) (UniProt Q9LEZ9).
T1 sequence: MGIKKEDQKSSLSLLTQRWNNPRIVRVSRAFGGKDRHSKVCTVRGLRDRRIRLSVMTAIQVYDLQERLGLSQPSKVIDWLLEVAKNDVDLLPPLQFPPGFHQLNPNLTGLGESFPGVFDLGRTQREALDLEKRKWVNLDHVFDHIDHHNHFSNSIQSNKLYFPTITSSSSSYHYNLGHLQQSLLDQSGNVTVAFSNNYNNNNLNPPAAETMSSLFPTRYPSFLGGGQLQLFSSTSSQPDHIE
Briefly: two-hybrid; yeast three-hybrid: AD-TCP17 (pGADT7) with BD-TCP17 and a third protein (NSs, γb, NS3, P19 or MBP control) from pBridge, the third protein expressed only without methionine; SD/-T-L-H-A and SD/-T-L-H-A-M plates, 30°C, 5 d.

For test [2], the target named is BSMV γb fused to the GAL4 binding domain (pGBKT7) (Barley stripe mosaic virus). As to the kind of experiment: two-hybrid; viral proteins fused to the GAL4 binding domain (pGBKT7, bait), TCP17 fused to the GAL4 activation domain (pGADT7, prey); co-transformed yeast on SD/-Trp-Leu-His-Ade, 30°C.
For test [3], the target named is RSV NS3 fused to the GAL4 binding domain (pGBKT7) (Rice stripe virus). The test is described as above.

No constants are given. Whether binding was seen depends on the method and setting. A result given as binding can be weak or reduced; the word gives no strength. Tags and fused reporters may be left off the sequences shown.

For the molecule “RSV NS3 expressed as the third protein from pBridge (pBridge-TCP17-NS3) (Rice stripe virus)”, the binding entry in test [1] is reported as “binds”. On the same count and under the same terms, in the case of “BSMV γb expressed as the third protein from pBridge (pBridge-TCP17-γb) (Barley stripe mosaic virus)” it was “binds”.

B1: TCP17 fused to the GAL4 activation domain (pGADT7) (protein, UniProt Q9LEZ9 1-242)
chain: MGIKKEDQKSSLSLLTQRWNNPRIVRVSRAFGGKDRHSKVCTVRGLRDRRIRLSVMTAIQVYDLQERLGLSQPSKVIDWLLEVAKNDVDLLPPLQFPPGFHQLNPNLTGLGESFPGVFDLGRTQREALDLEKRKWVNLDHVFDHIDHHNHFSNSIQSNKLYFPTITSSSSSYHYNLGHLQQSLLDQSGNVTVAFSNNYNNNNLNPPAAETMSSLFPTRYPSFLGGGQLQLFSSTSSQPDHIE
As for B1, the binding result in test [2] and in test [3] was “binds” each time.
